# The other results are listed elsewhere or left out.
# Key:
# Experiment in all cases: glycan array binding signal (z-score within array); higher = stronger binding
# Details in all cases: glycan notation: IUPAC condensed, linker removed
# Fuc(a1-2)Gal(b1-4)Glc = target: Fuc(a1-2)Gal(b1-4)Glc
# Method in brief: (§1)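 Arrays were curated from the Consortium for Functional Glycomics database, 3228 in total, and kept only where the protein sequence was available. Binding is expressed as a within-array Z-score. This score was averaged across arrays of the same protein sequence at different concentrations or buffers and across linkers, and negative values can be read as non-binding.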
# Fuc(a1-2)Gal(b1-4)Glc6S = target: Fuc(a1-2)Gal(b1-4)Glc6S
# Method in brief: as §1
# Fuc(a1-2)Gal(b1-4)GlcNAc = target: Fuc(a1-2)Gal(b1-4)GlcNAc
# Method in brief: as §1
# [1] = target: Fuc(a1-2)Gal(b1-4)GlcNAc(b1-2)Man
# Method in brief: as §1
# [2] = target: Fuc(a1-2)Gal(b1-4)GlcNAc(b1-2)Man(a1-3)[Fuc(a1-2)Gal(b1-4)GlcNAc(b1-2)Man(a1-6)]Man(b1-4)GlcNAc(b1-4)GlcNAc
# Method in brief: as §1
# [3] = target: Fuc(a1-2)Gal(b1-4)GlcNAc(b1-2)Man(a1-3)[Fuc(a1-2)Gal(b1-4)GlcNAc(b1-2)Man(a1-6)]Man(b1-4)GlcNAc(b1-4)[Fuc(a1-6)]GlcNAc
# Method in brief: as §1
# [4] = target: Fuc(a1-2)Gal(b1-4)GlcNAc(b1-2)[Fuc(a1-2)Gal(b1-4)GlcNAc(b1-4)]Man(a1-3)[Fuc(a1-2)Gal(b1-4)GlcNAc(b1-2)Man(a1-6)]Man(b1-4)GlcNAc(b1-4)GlcNAc
# Method in brief: as §1
# [5] = target: Fuc(a1-2)Gal(b1-4)GlcNAc(b1-3)Gal(b1-4)GlcNAc
# Method in brief: as §1
# [6] = target: Fuc(a1-2)Gal(b1-4)GlcNAc(b1-3)Gal(b1-4)GlcNAc(b1-3)Gal(b1-4)GlcNAc
# Method in brief: as §1
# [7] = target: Fuc(a1-2)Gal(b1-4)GlcNAc(b1-3)GalNAc
# Method in brief: as §1
# [8] = target: Fuc(a1-2)Gal(b1-4)GlcNAc(b1-3)[Fuc(a1-2)Gal(b1-4)GlcNAc(b1-6)]GalNAc
# Method in brief: as §1
# [9] = target: Fuc(a1-2)Gal(b1-4)GlcNAc(b1-6)GalNAc
# Method in brief: as §1
# [10] = target: Fuc(a1-2)Gal(b1-4)GlcNAc6S
# Method in brief: as §1
# [11] = target: Fuc(a1-2)Gal(b1-4)[Fuc(a1-3)]GlcNAc
# Method in brief: as §1
# [12] = target: Fuc(a1-2)Gal(b1-4)[Fuc(a1-3)]GlcNAc(b1-2)Man(a1-3)[Fuc(a1-2)Gal(b1-4)[Fuc(a1-3)]GlcNAc(b1-2)Man(a1-6)]Man(b1-4)GlcNAc(b1-4)GlcNAc
# Method in brief: as §1
# [13] = target: Fuc(a1-2)Gal(b1-4)[Fuc(a1-3)]GlcNAc(b1-2)Man(a1-6)[Fuc(a1-2)Gal(b1-4)[Fuc(a1-3)]GlcNAc(b1-2)Man(a1-3)]Man(b1-4)GlcNAc(b1-4)[Fuc(a1-6)]GlcNAc
# Method in brief: as §1
# [14] = target: Fuc(a1-2)Gal(b1-4)[Fuc(a1-3)]GlcNAc(b1-2)[Fuc(a1-2)Gal(b1-4)[Fuc(a1-3)]GlcNAc(b1-4)]Man(a1-3)[Fuc(a1-2)Gal(b1-4)[Fuc(a1-3)]GlcNAc(b1-2)Man(a1-6)]Man(b1-4)GlcNAc(b1-4)GlcNAc
# Method in brief: as §1
# [15] = target: Fuc(a1-2)Gal(b1-4)[Fuc(a1-3)]GlcNAc(b1-3)Gal(b1-4)[Fuc(a1-3)]GlcNAc
# Method in brief: as §1
# [16] = target: Fuc(a1-2)Gal(b1-4)[Fuc(a1-3)]GlcNAc(b1-3)Gal(b1-4)[Fuc(a1-3)]GlcNAc(b1-3)Gal(b1-4)[Fuc(a1-3)]GlcNAc
# Method in brief: as §1
# [17] = target: Fuc(a1-2)Gal(b1-4)[Fuc(a1-3)]GlcNAc(b1-3)GalNAc
# Method in brief: as §1
# [18] = target: Fuc(a1-2)Gal(b1-4)[Fuc(a1-3)]GlcNAc(b1-3)[Neu5Ac(a2-6)Gal(b1-4)GlcNAc(b1-6)]Gal(b1-4)Glc
# Method in brief: as §1
# [19] = target: Fuc(a1-2)Gal6S(b1-3)GlcNAc
# Method in brief: as §1
# [20] = target: Fuc(a1-2)Gal6S(b1-3)GlcNAc6S
# Method in brief: as §1
binder,measurement,setting,value
"Latrophilin-3 (Homo sapiens), Q9HAR2 (protein) MWPSQLLIFMMLLAPIIHAFSRAPIPMAVVRRELSCESYPIELRCPGTDVIMIESANYGRTDDKICDSDPAQMENIRCYLPDAYKIMSQRCNNRTQCAVVAGPDVFPDPCPGTYKYLEVQYECVPYKVEQKVFLCPGLLKGVYQSEHLFESDHQSGAWCKDPLQASDKIYYMPWTPYRTDTLTEYSSKDDFIAGRPTTTYKLPHRVDGTGFVVYDGALFFNKERTRNIVKFDLRTRIKSGEAIIANANYHDTSPYRWGGKSDIDLAVDENGLWVIYATEQNNGKIVISQLNPYTLRIEGTWDTAYDKRSASNAFMICGILYVVKSVYEDDDNEATGNKIDYIYNTDQSKDSLVDVPFPNSYQYIAAVDYNPRDNLLYVWNNYHVVKYSLDFGPLDSRSGQAHHGQVSYISPPIHLDSELERPSVKDISTTGPLGMGSTTTSTTLRTTTLSPGRSTTPSVSGRRNRSTSTPSPAVEVLDDMTTHLPSASSQIPALEESCEAVEAREIMWFKTRQGQIAKQPCPAGTIGVSTYLCLAPDGIWDPQGPDLSNCSSPWVNHITQKLKSGETAANIARELAEQTRNHLNAGDITYSVRAMDQLVGLLDVQLRNLTPGGKDSAARSLNKAMVETVNNLLQPQALNAWRDLTTSDQLRAATMLLHTVEESAFVLADNLLKTDIVRENTDNIKLEVARLSTEGNLEDLKFPENMGHGSTIQLSANTLKQNGRNGEIRVAFVLYNNLGPYLSTENASMKLGTEALSTNHSVIVNSPVITAAINKEFSNKVYLADPVVFTVKHIKQSEENFNPNCSFWSYSKRTMTGYWSTQGCRLLTTNKTHTTCSCNHLTNFAVLMAHVEVKHSDAVHDLLLDVITWVGILLSLVCLLICIFTFCFFRGLQSDRNTIHKNLCISLFVAELLFLIGINRTDQPIACAVFAALLHFFFLAAFTWMFLEGVQLYIMLVEVFESEHSRRKYFYLVGYGMPALIVAVSAAVDYRSYGTDKVCWLRLDTYFIWSFIGPATLIIMLNVIFLGIALYKMFHHTAILKPESGCLDNIKSWVIGAIALLCLLGLTWAFGLMYINESTVIMAYLFTIFNSLQGMFIFIFHCVLQKKVRKEYGKCLRTHCCSGKSTESSIGSGKTSGSRTPGRYSTGSQSRIRRMWNDTVRKQSESSFITGDINSSASLNREGLLNNARDTSVMDTLPLNGNHGNSYSIASGEYLSNCVQIIDRGYNHNETALEKKILKELTSNYIPSYLNNHERSSEQNRNLMNKLVNNLGSGREDDAIVLDDATSFNHEESLGLELIHEESDAPLLPPRVYSTENHQPHHYTRRRIPQDHSESFFPLLTNEHTEDLQSPHRDSLYTSMPTLAGVAATESVTTSTQTEPPPAKCGDAEDVYYKSMPNLGSRNHVHQLHTYYQLGRGSSDGFIVPPNKDGTPPEGSSKGPAHLVTSL",glycan array binding signal (z-score),Fuc(a1-2)Gal(b1-4)Glc,0.892
same,glycan array binding signal (z-score),Fuc(a1-2)Gal(b1-4)Glc6S,0.194
same,glycan array binding signal (z-score),Fuc(a1-2)Gal(b1-4)GlcNAc,0.15
same,glycan array binding signal (z-score),[1],0.397
same,glycan array binding signal (z-score),[2],0.747
same,glycan array binding signal (z-score),[3],-0.56
same,glycan array binding signal (z-score),[4],-0.478
same,glycan array binding signal (z-score),[5],0.188
same,glycan array binding signal (z-score),[6],0.659
same,glycan array binding signal (z-score),[7],-0.401
same,glycan array binding signal (z-score),[8],-0.284
same,glycan array binding signal (z-score),[9],2.91
same,glycan array binding signal (z-score),[10],0.588
same,glycan array binding signal (z-score),[11],0.567
same,glycan array binding signal (z-score),[12],1.73
same,glycan array binding signal (z-score),[13],1.49
same,glycan array binding signal (z-score),[14],2.72
same,glycan array binding signal (z-score),[15],-0.103
same,glycan array binding signal (z-score),[16],-0.076
same,glycan array binding signal (z-score),[17],4.34
same,glycan array binding signal (z-score),[18],-0.72
same,glycan array binding signal (z-score),[19],1.28
same,glycan array binding signal (z-score),[20],-0.039
